Assay results taken from publication PMC11695783 (Frontiers in Pharmacology, 2024).

Tested on: Mycoplasma pneumoniae strain M129 (ATCC 29342)
Assay: Time-kill curves
Format: cell-based
Settings: 72 h
Experimental: Mycoplasma pneumoniae strain M129 (ATCC 29342) was obtained from American Type Culture Collection (Manassas, VA, United States) and cultured at 37°C in the presence of 5% CO2 in the modified SP-4 liquid medium (pH 7.4) containing 2.1% (w/v) CM1166 mycoplasma broth base medium (Oxoid, Hants, United Kingdom), 20% (v/v) fetal bovine serum (FBS, Bioexplorer, CO, United States), 0.4% yeast extract (Oxoid), 0.55% (w/v) CMRL 1066 w/L-glutamine culture media powder (MyBioSource, San Diego, CA, United States), 1% D-glucose (Macklin) and 0.004% phenol red (Macklin). […] The solid medium is based on the above formula with the addition of 1% agar, and the characteristic fried egg-like colonies were used for experiments following incubation for 7 d on plates.
The tubes were incubated at 37°C in 5% CO2 for 72 h, and 200 µL of the culture was removed every 12 h for 10-fold serial dilutions. The diluted cultures were plated on plates for further culture and counted after 7 d. The experiment was repeated three times.

## O=C(O)c1cn(C2CC2)c2cc(N3CCNCC3)c(F)cc2c1=O [ciprofloxacin]
Static time-kill
  concentration at which bactericidal effect was achieved: ≥ 8 × MIC
≥ 8×MIC
  reduction of bacterial counts: 3.44 log10 CFU/mL
